From article PMC12394589
These are yes or no findings as the source states them, for the method shown. Binding seen in cells or lysates may run through a third protein. Some entries that bind do so weakly or less than the wild type.

Amino acid sequences for entries named in this document (tags omitted).
UniProt Q13547: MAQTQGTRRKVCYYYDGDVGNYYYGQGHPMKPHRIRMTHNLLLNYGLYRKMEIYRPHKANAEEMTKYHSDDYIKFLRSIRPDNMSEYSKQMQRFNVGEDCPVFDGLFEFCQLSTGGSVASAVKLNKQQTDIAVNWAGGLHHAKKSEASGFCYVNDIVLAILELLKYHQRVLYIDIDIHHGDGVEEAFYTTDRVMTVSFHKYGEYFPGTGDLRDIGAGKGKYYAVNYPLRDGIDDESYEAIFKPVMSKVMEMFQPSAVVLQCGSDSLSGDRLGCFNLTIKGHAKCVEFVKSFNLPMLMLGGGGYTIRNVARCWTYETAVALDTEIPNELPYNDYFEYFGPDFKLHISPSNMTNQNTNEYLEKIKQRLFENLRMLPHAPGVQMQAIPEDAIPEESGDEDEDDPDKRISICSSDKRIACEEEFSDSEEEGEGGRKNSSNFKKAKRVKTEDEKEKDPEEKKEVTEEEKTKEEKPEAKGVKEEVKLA
UniProt Q92769: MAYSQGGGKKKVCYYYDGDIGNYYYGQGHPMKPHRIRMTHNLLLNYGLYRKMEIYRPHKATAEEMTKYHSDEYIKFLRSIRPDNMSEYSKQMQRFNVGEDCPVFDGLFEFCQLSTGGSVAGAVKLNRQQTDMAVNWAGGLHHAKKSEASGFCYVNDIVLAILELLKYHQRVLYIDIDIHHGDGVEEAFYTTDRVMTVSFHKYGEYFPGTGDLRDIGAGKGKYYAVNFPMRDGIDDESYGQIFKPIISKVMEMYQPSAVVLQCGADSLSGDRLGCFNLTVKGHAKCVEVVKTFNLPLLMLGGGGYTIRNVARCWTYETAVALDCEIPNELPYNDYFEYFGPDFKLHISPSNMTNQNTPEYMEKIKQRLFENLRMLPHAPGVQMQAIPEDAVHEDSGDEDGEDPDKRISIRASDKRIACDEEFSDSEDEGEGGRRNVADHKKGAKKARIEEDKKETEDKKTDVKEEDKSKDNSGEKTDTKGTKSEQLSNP

Molecular target: T1, SIAH2 (seven-in-absentia homolog 2, E3 ubiquitin ligase), endogenous (human (endogenous in HEL)) (UniProt O43255)
T1 sequence: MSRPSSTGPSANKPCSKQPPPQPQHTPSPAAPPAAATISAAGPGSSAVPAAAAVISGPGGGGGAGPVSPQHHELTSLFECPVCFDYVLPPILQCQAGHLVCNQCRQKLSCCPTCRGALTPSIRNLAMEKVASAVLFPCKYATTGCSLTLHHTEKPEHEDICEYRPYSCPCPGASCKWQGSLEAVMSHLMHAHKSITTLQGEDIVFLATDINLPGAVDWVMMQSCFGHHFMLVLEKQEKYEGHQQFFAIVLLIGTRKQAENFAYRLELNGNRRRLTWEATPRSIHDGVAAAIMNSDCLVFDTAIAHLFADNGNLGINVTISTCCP
Assay: co-IP; anti-SIAH2 (sc-81787) or mouse IgG with 1 mg HEL lysate overnight at 4 °C, protein G Sepharose, one high-salt PBS wash and two PBS washes, immunoblot; cells treated beforehand with 5 nM FK228 or 5 µM MERCK60 for 48 h (Fig. 3f) or with 50 nM bortezomib for 6 h (Fig. 4c)

binding	Substance
binds	HDAC1 (histone deacetylase 1), endogenous (from UniProt Q13547 1-482) (enzyme)
binds	HDAC2 (histone deacetylase 2), endogenous (from UniProt Q92769 1-488) (enzyme)
